The supplement of paper PMC9233669
This sample is rich in variants without activity.

Experiments:
biotinyl-Val-oxazolone = assay: self-aminoacylation, catalytic enhancement (BVO) (fold over background); higher = more active; k-Seq, kA / k0A0; sequences stand for … in GGGAAUGGAUCCACAUCUACGAAUUC…UUCACUGCAGACUUGACGAAGCUG
How it was run: (§1)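 Mutagenized RNA pools with a 21-nt variable region (0.43 μM) were reacted with each biotinyl-aminoacyl-oxazolone at 2–1250 μM for 90 minutes at room temperature, in 50 μL HEPES/NaCl/KCl/MgCl2/CaCl2 buffer containing 5% acetonitrile at pH 6.9–7.0. RNA captured on streptavidin was quantified by triplicate qPCR and by Illumina sequencing. The fraction reacted for each sequence was fit to a pseudo-first-order model with bootstrapping, and catalytic enhancement is the median kA divided by the uncatalyzed rate, taken as the low-activity peak of a bimodal Gaussian fit.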

biotinyl-Ile-oxazolone = assay: self-aminoacylation, catalytic enhancement (BIO) (fold over background); higher = more active; k-Seq, kA / k0A0; sequences stand for … in GGGAAUGGAUCCACAUCUACGAAUUC…UUCACUGCAGACUUGACGAAGCUG
How it was run: as §1

biotinyl-Met-oxazolone = assay: self-aminoacylation, catalytic enhancement (BMO) (fold over background); higher = more active; k-Seq, kA / k0A0; sequences stand for … in GGGAAUGGAUCCACAUCUACGAAUUC…UUCACUGCAGACUUGACGAAGCUG
How it was run: as §1

biotinyl-Trp-oxazolone = assay: self-aminoacylation, catalytic enhancement (BWO) (fold over background); higher = more active; k-Seq, kA / k0A0; sequences stand for … in GGGAAUGGAUCCACAUCUACGAAUUC…UUCACUGCAGACUUGACGAAGCUG
How it was run: as §1

biotinyl-Phe-oxazolone = assay: self-aminoacylation, catalytic enhancement (BFO) (fold over background); higher = more active; k-Seq, kA / k0A0; sequences stand for … in GGGAAUGGAUCCACAUCUACGAAUUC…UUCACUGCAGACUUGACGAAGCUG
How it was run: as §1

biotinyl-Leu-oxazolone = assay: self-aminoacylation, catalytic enhancement (BLO) (fold over background); higher = more active; k-Seq, kA / k0A0; sequences stand for … in GGGAAUGGAUCCACAUCUACGAAUUC…UUCACUGCAGACUUGACGAAGCUG
How it was run: as §1

Sequence | self-aminoacylation (biotinyl-Val-oxazolone) | self-aminoacylation (biotinyl-Ile-oxazolone) | self-aminoacylation (biotinyl-Met-oxazolone) | self-aminoacylation (biotinyl-Trp-oxazolone) | self-aminoacylation (biotinyl-Phe-oxazolone) | self-aminoacylation (biotinyl-Leu-oxazolone)
CUACUGCAAACAAUCGGUAUG [Fam1A.1 aminoacylation ribozyme variant] | 0.91 | 0.864 | 0.878 | 1.06 | 0.575 | 0.764
AAGUUUGCUAAUAUACGCAAG [Fam3.1 aminoacylation ribozyme variant] | 0.629 | 0.63 | 0.652 | 0.591 | 0.748 | 0.488
AUUAUCCUGGUCAUCGAAUGA [Fam2.1 aminoacylation ribozyme variant] | 1.1 | 0.962 | 1.01 | 0.435 | 0.645 | 1.11
CUACUUCAAAAAAUCGGUCUC [Fam1A.1 aminoacylation ribozyme variant] | 0.712 | 0.86 | 0.693 | 5.93 | 8.87 | 0.755
AUUACCCUGGUCGUCGAGUUA [Fam2.1 aminoacylation ribozyme variant] | 0.988 | 1.16 | 0.987 | 0.786 | 0.846 | 0.953
CCACACUUCAAUCAAUCGGAC [Fam1B.1 aminoacylation ribozyme variant] | 0.924 | 0.886 | 0.543 | 0.82 | 1.36 | 0.67
ACGUUUGCUAAUCGUCGCAAG [Fam3.1 aminoacylation ribozyme variant] | 1.12 | 1.46 | 1.24 | 1.51 | 1.61 | 1.43
AAGUUUGCUAAUAUUUGCAAG [Fam3.1 aminoacylation ribozyme variant] | 1.07 | 1.22 | 1.14 | 1.68 | 1.09 | 0.981
AAGUUUGCUAACAGUAGCAAG [Fam3.1 aminoacylation ribozyme variant] | 0.699 | 0.886 | 0.717 | 0.858 | 1.05 | 0.782
CUACUUUAAACAAUCGGUCUG [Fam1A.1 aminoacylation ribozyme variant] | 0.789 | 0.819 | 0.827 | 0.917 | 1.34 | 0.717
CUACUACCAACAAUCGGUCUG [Fam1A.1 aminoacylation ribozyme variant] | 0.845 | 0.756 | 0.694 | 0.915 | 0.998 | 0.916
AAGUUUGCCCAUAGUCGCAAG [Fam3.1 aminoacylation ribozyme variant] | 0.947 | 0.928 | 0.864 | 1.15 | 0.937 | 0.863
AUUACCCUGGUCUUCGAGUUA [Fam2.1 aminoacylation ribozyme variant] | 1.2 | 1.07 | 1.1 | 0.896 | 0.759 | 1.03
CUACUUCAAACUAUCGGUGUG [Fam1A.1 aminoacylation ribozyme variant] | 1.14 | 1.09 | 1.3 | 0.784 | 0.584 | 1.41
AUUACCCUGGUCAGCGAGUGU [Fam2.1 aminoacylation ribozyme variant] | 2.41 | 2.49 | 3.7 | 4.47 | 15.4 | 3.85
AUUACCCUGGCCAUCGAGUGC [Fam2.1 aminoacylation ribozyme variant] | 0.908 | 0.727 | 1.36 | 1.32 | 1.01 | 0.769
CUACUUCAAACGUUCGGUCUG [Fam1A.1 aminoacylation ribozyme variant] | 0.816 | 0.686 | 0.565 | 0.895 | 0.336 | 0.695
AAGGUGGCUAAUAGUCGCAAG [Fam3.1 aminoacylation ribozyme variant] | 1.41 | 1.63 | 1.65 | 1.95 | 1.82 | 1.74
AUUCACCUAGGCCAUCGGAUG [Fam2.2 aminoacylation ribozyme variant] | 0.921 | 0.824 | 0.758 | 0.627 | 0.269 | 0.863
CUACUUCCAACCAUCGGUCUG [Fam1A.1 aminoacylation ribozyme variant] | 0.789 | 0.736 | 0.765 | 0.433 | 0.682 | 0.813
CCACAUUCCAAGCAAUCGGUC [Fam1B.1 aminoacylation ribozyme variant] | 1.41 | 1.35 | 1.25 | 1.02 | 1.21 | 1.2
AUUACCCUGGUCAUUGAAUGA [Fam2.1 aminoacylation ribozyme variant] | 0.831 | 0.911 | 0.834 | 0.557 | 1.09 | 0.773
GCACACUUCAAGCAAUCGGCC [Fam1B.1 aminoacylation ribozyme variant] | 3.45 | 3.36 | 2.99 | 6.96 | 4.88 | 3.49
CUACUUCAACCACUCGGUCUG [Fam1A.1 aminoacylation ribozyme variant] | 0.841 | 0.74 | 0.701 | 0.862 | 0.905 | 0.948
CCAAAGUUCAAGCAAUCGGUC [Fam1B.1 aminoacylation ribozyme variant] | 1.4 | 1.35 | 1.32 | 1.17 | 1.35 | 1.28
CAACACUUCACGCAAUCGGUC [Fam1B.1 aminoacylation ribozyme variant] | 1.24 | 1.25 | 0.988 | 1.11 | 0.818 | 1.06

Sequence | self-aminoacylation (biotinyl-Val-oxazolone) | self-aminoacylation (biotinyl-Ile-oxazolone) | self-aminoacylation (biotinyl-Met-oxazolone) | self-aminoacylation (biotinyl-Trp-oxazolone) | self-aminoacylation (biotinyl-Phe-oxazolone) | self-aminoacylation (biotinyl-Leu-oxazolone)
AUUACCCUCGUCAUCGAGUCA [Fam2.1 aminoacylation ribozyme variant] | 0.813 | 0.848 | 0.71 | 0.514 | 0.755 | 1.04
CCACACGUAAAGCAAUCGGUC [Fam1B.1 aminoacylation ribozyme variant] | 1.51 | 1.23 | 1.02 | 0.912 | 0.954 | 0.993
AUACUUCAAACAAUCGGUCCG [Fam1A.1 aminoacylation ribozyme variant] | 0.586 | 0.641 | 0.729 | 1.27 | 1.31 | 0.699
CUACUUCAAACAGUCGGUCCG [Fam1A.1 aminoacylation ribozyme variant] | 1.02 | 0.887 | 0.943 | 0.608 | 0.369 | 1.1
AAGUUGGGUAAUAGUCGCAAG [Fam3.1 aminoacylation ribozyme variant] | 1.26 | 1.33 | 1.39 | 1.83 | 1.96 | 1.16
AUUACUCUGGUCAUCCAGUGA [Fam2.1 aminoacylation ribozyme variant] | 2.74 | 3.2 | 5.01 | 6.01 | 17.3 | 5.29
CGACUUAAAACAAUCGGUCUG [Fam1A.1 aminoacylation ribozyme variant] | 1.17 | 1.33 | 1.48 | 1.06 | 1.15 | 1.26
CCACACUUCAAGAAAUAGGUC [Fam1B.1 aminoacylation ribozyme variant] | 0.537 | 0.487 | 0.46 | 0.419 | 0.733 | 0.41
CUCCUUCAAACAAUUGGUCUG [Fam1A.1 aminoacylation ribozyme variant] | 0.872 | 0.841 | 0.769 | 0.941 | 1.38 | 0.847
AAGUUUGCUAAUAGUCACACG [Fam3.1 aminoacylation ribozyme variant] | 0.886 | 1.04 | 0.886 | 1.72 | 1.63 | 0.991
CCACACGUCAAGCAAUAGGUC [Fam1B.1 aminoacylation ribozyme variant] | 0.831 | 0.655 | 0.765 | 0.587 | 1.1 | 0.652
AUUACCGUGGUCAUCUAGUGA [Fam2.1 aminoacylation ribozyme variant] | 3.82 | 3.29 | 6.98 | 7.82 | 31.2 | 6.26
AAGUUUGUUAAUAGUCGGAAG [Fam3.1 aminoacylation ribozyme variant] | 0.837 | 0.867 | 0.837 | 0.67 | 0.78 | 0.731
CCACUUCAAACAAUCGGACUG [Fam1A.1 aminoacylation ribozyme variant] | 1.1 | 0.9 | 1.03 | 14.9 | 22.6 | 1.26
AAGUUUGCUAAUAGCCGCUAG [Fam3.1 aminoacylation ribozyme variant] | 0.933 | 0.994 | 1.05 | 1.15 | 0.731 | 0.961
AUUACCCUGGUCAUCCAGUGC [Fam2.1 aminoacylation ribozyme variant] | 1.71 | 1.59 | 1.65 | 1.89 | 5.75 | 2.19
AAGUUAGCUAAUAGUAGCAAG [Fam3.1 aminoacylation ribozyme variant] | 1.07 | 1.43 | 1.09 | 1.33 | 1.62 | 1.02
AAGUUUGCUAAUAGUCUCAAC [Fam3.1 aminoacylation ribozyme variant] | 0.762 | 0.579 | 0.445 | 0.691 | 0.907 | 0.502
AAGUUGGCUAAUAGACGCAAG [Fam3.1 aminoacylation ribozyme variant] | 0.685 | 0.777 | 0.473 | 0.915 | 1 | 0.602
CUACCUCAAACCAUCGGUCUG [Fam1A.1 aminoacylation ribozyme variant] | 1.06 | 1.09 | 0.85 | 1.26 | 0.637 | 0.892
AUUACCCUGGUCAUUGAGUUA [Fam2.1 aminoacylation ribozyme variant] | 1.08 | 0.879 | 0.998 | 0.567 | 0.873 | 0.855
CAACACUUCAAGCAGUCGGUC [Fam1B.1 aminoacylation ribozyme variant] | 1.04 | 0.986 | 0.901 | 0.839 | 0.982 | 0.979
AAGGUUGCUAAUAGACGCAAG [Fam3.1 aminoacylation ribozyme variant] | 0.682 | 0.653 | 0.807 | 0.85 | 1.15 | 0.598
CCACACUGCAAGCAAUCGGCC [Fam1B.1 aminoacylation ribozyme variant] | 5.56 | 3.29 | 2.93 | 3.9 | 20.5 | 1.99
CUACUUUAAACAAUCGGUCUC [Fam1A.1 aminoacylation ribozyme variant] | 0.809 | 0.819 | 0.719 | 0.649 | 1.09 | 0.905
